Measured values published in patent US7968744B2, “Physiological coolants based on lactoyl esters of menthyl lactate” (Renessenz, LLC, priority 2007, dated 2011).

System: mouth (panel of three flavorists)
Assay: Sensory evaluation of cooling strength by a panel of three flavorists
Type: in vivo
Experimental: The sensory properties of crystalline MLL and liquid products that contain MLL (from Examples 1-5, above) are evaluated by a panel of three flavorists. The standard method involves holding an aqueous solution containing 20 ppm of coolant in the mouth for 30 seconds, then spitting it out and observing and quantifying the cooling effect when compared with a set of reference standards. Based on their cooling strength, the samples are scored on a scale of 1 to 10, with 10 being the strongest. Samples used as reference standards are to monomenthyl glutarate (3.5 on this scale), l-menthyl lactate (4.5) and N-ethyl-3-p-menthane carboxamide, i.e., WS-3 (10). Several coolant “cocktails,” i.e., liquid coolant-mixtures, are prepared, and their sensory properties are evaluated as in Example 6. The compositions and results appear in Table 2.

Structure (SMILES): CC(C)[C@@H]1CC[C@@H](C)C[C@H]1OC(=O)[C@H](C)OC(=O)[C@H](C)O [Example 6, l-menthyl L-lactoyl-L-lactate]
- Perception (aqueous solution containing 20 ppm of coolant held in the mouth for 30 seconds, Table 1): clean, smooth
- Cooling effect, perception (in words) (sensory evaluation): clean, smooth cooling effect
